Results from paper PMC6626145.
No constants are given. Whether binding was seen depends on the method and setting. For some of these results: In cells and extracts the contact can be indirect. Some binding calls cover weakened binding; strength is not graded here. For some of these results: Tags and fused reporters may be left off the sequences shown. Values belong to the molecule of their own block, whether it stands above or below them.

By UniProt entry, the sequences of proteins in these tests, tags left out.
UniProt A0AAR7: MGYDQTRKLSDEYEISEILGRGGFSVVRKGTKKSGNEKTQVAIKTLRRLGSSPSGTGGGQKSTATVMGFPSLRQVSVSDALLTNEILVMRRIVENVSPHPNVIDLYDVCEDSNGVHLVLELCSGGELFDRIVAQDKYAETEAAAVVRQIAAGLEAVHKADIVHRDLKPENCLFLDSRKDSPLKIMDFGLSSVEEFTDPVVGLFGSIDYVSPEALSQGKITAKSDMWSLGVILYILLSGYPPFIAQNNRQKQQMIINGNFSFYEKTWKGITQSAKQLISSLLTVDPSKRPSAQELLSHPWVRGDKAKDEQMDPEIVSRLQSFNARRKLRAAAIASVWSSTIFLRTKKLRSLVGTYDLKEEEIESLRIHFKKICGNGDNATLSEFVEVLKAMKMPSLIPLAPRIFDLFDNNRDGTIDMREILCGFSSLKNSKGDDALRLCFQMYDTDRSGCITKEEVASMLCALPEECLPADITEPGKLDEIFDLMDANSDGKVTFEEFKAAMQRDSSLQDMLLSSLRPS

How the values were obtained:
[1] = molecular target: T1, StrepII-SUMO-CYCLOPS (Lotus japonicus) (UniProt A9XMT3); test: SEC; co-purified complex (Strep-Tactin, then heparin column) on Superose 6 increase 10/300 GL; 50 mM Tris pH 7.8, 150 mM NaCl, 4 mM DTT; SDS-PAGE of fractions; both purified
T1 sequence: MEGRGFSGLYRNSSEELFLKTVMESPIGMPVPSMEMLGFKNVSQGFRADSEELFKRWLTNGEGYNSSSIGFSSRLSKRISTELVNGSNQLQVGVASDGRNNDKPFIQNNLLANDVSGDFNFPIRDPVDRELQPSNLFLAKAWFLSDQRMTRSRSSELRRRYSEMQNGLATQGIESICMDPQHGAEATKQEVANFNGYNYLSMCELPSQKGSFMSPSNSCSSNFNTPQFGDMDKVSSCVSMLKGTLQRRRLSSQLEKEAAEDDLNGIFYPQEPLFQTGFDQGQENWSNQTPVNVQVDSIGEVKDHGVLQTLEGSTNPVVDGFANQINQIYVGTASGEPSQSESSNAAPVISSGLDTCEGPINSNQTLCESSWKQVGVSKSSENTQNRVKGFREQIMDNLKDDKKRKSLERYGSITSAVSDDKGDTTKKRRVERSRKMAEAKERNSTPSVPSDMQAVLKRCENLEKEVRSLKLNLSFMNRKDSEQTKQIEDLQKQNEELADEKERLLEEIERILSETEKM

[2] = molecular target: T1, StrepII-SUMO-CYCLOPS (Lotus japonicus); test: pull-down; StrepII-SUMO-CYCLOPS and His-SUMO-CCaMK co-expressed in E. coli; lysate supernatant on Strep-Tactin sepharose beads, 1 hour, 4 °C; 100 mM Tris pH 7.8, 150 mM NaCl, 5 mM DTT; eluted with 2.5 mM desthiobiotin; SDS-PAGE of eluted fractions
[3] = molecular target: CCaMK fused to the GAL4 binding domain (BD) (Lotus japonicus); test: two-hybrid; yeast strain AH109; Gal4BD and Gal4AD fusions from pYeast 2 µ Leu 1-2 and pYeast 2 µ Trp 3-4; growth on -LWAH solid media, 28 °C, 4 days

binding [1]: binds
binding [2]: binds
Molecule: His-SUMO-CCaMK (from UniProt A0AAR7 1-518) (enzyme)

binding [3]: binds
B1: CYCLOPS fused to the GAL4 activation domain (AD) (protein, UniProt A9XMT3 1-518)
chain: T1 sequence

binding [3]: binds
B2: deletion variant of CYCLOPS (amino acids 84–366) (domain or fragment, UniProt A9XMT3 84-366)
chain: VNGSNQLQVGVASDGRNNDKPFIQNNLLANDVSGDFNFPIRDPVDRELQPSNLFLAKAWFLSDQRMTRSRSSELRRRYSEMQNGLATQGIESICMDPQHGAEATKQEVANFNGYNYLSMCELPSQKGSFMSPSNSCSSNFNTPQFGDMDKVSSCVSMLKGTLQRRRLSSQLEKEAAEDDLNGIFYPQEPLFQTGFDQGQENWSNQTPVNVQVDSIGEVKDHGVLQTLEGSTNPVVDGFANQINQIYVGTASGEPSQSESSNAAPVISSGLDTCEGPINSNQTL
